PubChem BioAssay AID1259261 | Sanger Institute | 2017
Here is one part, drawn at random, of 794 reagents. 10 of them (1.3%) were called active. 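Calls reflect knock-down alone without drug; synergy scores with BYL719, cetuximab or trametinib do not affect calls.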 Viability is capped at 1. Reagent sequences are not shown. Not stated in the record: the amount of reagent, the time to read-out.

- Assay: 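siRNA screen across the kinome for kinases that are essential and partners synergising with drugs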 (primary screen)
- System: HCC2998 human colorectal cancer cells
- Knock-down reagent: siRNA pool against human genes
- Challenge: anchor drugs BYL719 1 µM, cetuximab 5 µg/ml or trametinib 10 nM, each compared with DMSO vehicle
- Read-out: 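Viability as fraction of non-targeting control plus robust z-score without drug; synergy scores compare knock-down plus drug against each alone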
- Direction: viability z-score, knock-down alone: higher = more viable cells than controls; viability fraction, knock-down alone: higher = more viable cells; synergy score with BYL719: higher = stronger combined killing with BYL719; synergy score with trametinib: higher = stronger combined killing with trametinib; synergy score with cetuximab: higher = stronger combined killing with cetuximab
- Active means: 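a knock-down is called essential if its robust z-score without drug is under -3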
- Calls: active = essential; inactive = no change

gene | viability z-score, knock-down alone | viability fraction, knock-down alone | synergy score with BYL719 | synergy score with trametinib | synergy score with cetuximab | call
NUAK1 (GeneID 9891) | -0.932 | 0.732 | -0.145 | 0.0216 | 0.0189 | inactive
PRKCZ (GeneID 5590) | -0.697 | 0.761 | 0.0496 | 0.12 | 0.0268 | inactive
CIT (GeneID 11113) | -0.406 | 0.798 | 0.0818 | 0.151 | 0.0448 | inactive
LIMK2 (GeneID 3985) | 0.454 | 0.906 | 0.0123 | 0.126 | -0.0393 | inactive
TBX3 (GeneID 6926) | 0.247 | 0.88 | 0.0101 | 0.101 | -0.0276 | inactive
ATP23 (GeneID 91419) | 1.17 | 0.996 | 0.0162 | 0.0896 | -0.0329 | inactive
MYLK2 (GeneID 85366) | -1.63 | 0.644 | -0.111 | 0.00156 | -0.0872 | inactive
AURKC (GeneID 6795) | 0.76 | 0.944 | -0.159 | -0.00464 | -0.0393 | inactive
MARK4 (GeneID 57787) | -1.38 | 0.675 | -0.0868 | 0 | -0.0249 | inactive
TAF1L (GeneID 138474) | -1.82 | 0.62 | -0.0829 | 0.00569 | 0.0819 | inactive
INSRR (GeneID 3645) | -1.92 | 0.609 | -0.0458 | 0.0741 | -0.00369 | inactive
PLK1 (GeneID 5347) | -4.26 | 0.314 | 0.0148 | 0.0283 | 0.000948 | active
BMPR2 (GeneID 659) | -0.107 | 0.835 | 0.00444 | 0.093 | -0.00727 | inactive
MYLK3 (GeneID 91807) | 0.896 | 0.961 | 0.0385 | 0.112 | -0.0758 | inactive
CDK5R1 (GeneID 8851) | -0.744 | 0.756 | -0.0889 | 0.0949 | -0.0227 | inactive
PIKFYVE (GeneID 200576) | -0.164 | 0.828 | -0.0705 | -0.129 | -0.0668 | inactive
PIP5K1A (GeneID 8394) | 0.225 | 0.877 | -0.0463 | 0.0623 | -0.0611 | inactive
SRMS (GeneID 6725) | 0.663 | 0.932 | 0.108 | 0.0614 | 0.0723 | inactive
KHK (GeneID 3795) | -0.305 | 0.811 | -0.0712 | 0.00788 | -0.0268 | inactive
CLK1 (GeneID 1195) | 1.03 | 0.978 | -0.0611 | 0.0342 | -0.0244 | inactive
EFNB3 (GeneID 1949) | -0.0849 | 0.838 | 0.0451 | 0.103 | 0.0719 | inactive
PLK3 (GeneID 1263) | 0.0794 | 0.859 | -0.0815 | -0.0156 | -0.143 | inactive
CDADC1 (GeneID 81602) | 0.94 | 0.967 | -0.11 | 0.0596 | -0.0199 | inactive
MYLK4 (GeneID 340156) | 0.647 | 0.93 | 0.0702 | 0.123 | 0.0156 | inactive
GNE (GeneID 10020) | 0.0217 | 0.852 | -0.0796 | 0.1 | -0.0696 | inactive
CRKL (GeneID 1399) | 1.21 | 1 | -0.0871 | -0.000927 | -0.0432 | inactive
FER (GeneID 2241) | 1.2 | 0.999 | -0.0828 | -0.038 | -0.0229 | inactive
NADK (GeneID 65220) | 0.831 | 0.953 | -0.00927 | 0.103 | -0.0882 | inactive
STK24 (GeneID 8428) | 0.395 | 0.898 | -0.108 | -0.161 | -0.00544 | inactive
BLK (GeneID 640) | 1.21 | 1 | -0.109 | 0.00463 | 0.0181 | inactive
PRKAG3 (GeneID 53632) | -0.624 | 0.771 | 0.00254 | -0.0808 | -0.00769 | inactive
SCYL3 (GeneID 57147) | 1.21 | 1 | -0.0171 | 0.0407 | -0.0432 | inactive
IKBKG (GeneID 8517) | -0.453 | 0.792 | -0.0148 | 0.015 | -0.0228 | inactive
SRC (GeneID 6714) | -0.704 | 0.761 | -0.0658 | 0.0931 | -0.0381 | inactive
AMER1 (GeneID 139285) | -0.386 | 0.8 | 0.032 | 0.199 | -0.0354 | inactive
AK5 (GeneID 26289) | -0.79 | 0.75 | -0.0511 | 0.0625 | -0.0275 | inactive
ITPKA (GeneID 3706) | 1.21 | 1 | -0.109 | -0.0361 | -0.0432 | inactive
CDK16 (GeneID 5127) | -0.563 | 0.778 | -0.0788 | 0.168 | -0.00801 | inactive
LRRK2 (GeneID 120892) | 1.21 | 1 | 0.105 | 0.153 | -0.0432 | inactive
CDK3 (GeneID 1018) | 0.672 | 0.933 | -0.0152 | 0.0385 | -0.0451 | inactive
CLSPN (GeneID 63967) | -1.42 | 0.671 | -0.0427 | -0.0356 | -0.132 | inactive
CDK6 (GeneID 1021) | -0.938 | 0.731 | -0.0808 | -0.0721 | -0.0708 | inactive
CILK1 (GeneID 22858) | 1.21 | 1 | 0.0542 | 0 | -0.0432 | inactive
MED24 (GeneID 9862) | 0.534 | 0.916 | -0.0186 | -0.0892 | 0.0022 | inactive
RTN4 (GeneID 57142) | 0.565 | 0.92 | -0.000916 | 0.0374 | 0.0486 | inactive
ROR1 (GeneID 4919) | 0.375 | 0.896 | 0.0872 | 0.153 | 0.0641 | inactive
CIB2 (GeneID 10518) | -1.98 | 0.6 | 0.0118 | -0.0946 | -0.00635 | inactive
RPS6KB1 (GeneID 6198) | 0.696 | 0.936 | 0.0925 | 0.258 | 0.151 | inactive
RYK (GeneID 6259) | 0.31 | 0.888 | -0.0308 | -0.0318 | -0.0729 | inactive
ETNK1 (GeneID 55500) | -1.5 | 0.661 | -0.0644 | 0.0384 | 0.00398 | inactive
TAB1 (GeneID 10454) | 1.21 | 1 | -0.0743 | -0.047 | -0.0432 | inactive
TJP2 (GeneID 9414) | -0.0853 | 0.838 | -0.129 | -0.159 | -0.0237 | inactive
STK36 (GeneID 27148) | -1.36 | 0.678 | -0.235 | 0.0109 | -0.17 | inactive
EPHB6 (GeneID 2051) | 1.21 | 1 | -0.00837 | 0.0906 | -0.0432 | inactive
PDPK1 (GeneID 5170) | -1.14 | 0.706 | 0.0392 | 0.0744 | 0.0315 | inactive
